Literature values, collected in patent US12171854B2, “Heterocyclic-dithiol click chemistry” (Northeastern University, priority 2017, dated 2024).
For at least one compound, name, drawing or mass did not settle the structure.

Conditions: with reduced glutathione; cited from earlier work

Q: For OC1CSSCC1O (stereo not shown) [oxidized DTT], which “rate constant of thiol-disulfide exchange” value is on record?
A: 3 M⁻¹ s⁻¹
